Results deposited as PubChem BioAssay AID1259308 (NCATS, 2017).
This is one part, drawn at random, of about 59,000 deposited reagents. About 1,510 of all reagents (2.6%) count as active. 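Calls use total luciferase alone and ignore viability, so some active siRNAs may act by altering cell number.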 Reagents against one gene are numbered here.

Screen: 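Candidate targets for better recombinant protein yield in mammalian cells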 (primary screen)
Cell system: human HEK293 embryonic kidney cells stably expressing firefly luciferase (HEK-CMV-Luc2-Hygro)
Knock-down reagent: single siRNA against human genes, 0.8 pmol siRNA per well
Timing: 72 h
Measured: 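Reporter luminescence and viable-cell signal on separate replicate plates, given as percent of non-targeting control and median/MAD z-scores, plus per-cell luciferase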
Reading the numbers: total luciferase, z-score and total luciferase, % of control: higher = more reporter protein produced; luciferase per cell, z-score: higher = more reporter output per viable cell; viable cells, % of control: higher = more viable cells
Call rule: 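An siRNA counts as active if its total luciferase robust z-score exceeds 3; genes with two or more such siRNAs out of three were retested with fresh siRNAs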
Meaning of the calls: active = raised luciferase; inactive = no rise

no.	Gene	siRNA no.	total luciferase, z-score	total luciferase, % of control	luciferase per cell, z-score	viable cells, % of control	activity call
1	ASB3	1	0.145	84.8	0.317	87.1	inactive
2	ASB3	2	0.418	90.2	0.153	96.8	inactive
3	ASB3	3	-0.231	77.3	-0.876	109	inactive
4	NCF1	1	-0.44	73.1	0.313	75.3	inactive
5	NCF1	2	-0.895	64.1	-0.871	90.1	inactive
6	NCF1	3	-0.744	67.1	-0.65	89	inactive
7	WTAP	1	-1.82	45.7	-1.38	73.4	inactive
8	WTAP	2	-2.69	28.3	-1.69	49.3	inactive
9	WTAP	3	-2.66	29	-2.58	63.9	inactive
10	GARIN1A	1	3.15	145	3.84	58.8	active
11	GARIN1A	2	0.217	86.2	0.58	82.7	inactive
12	GARIN1A	3	-0.915	63.7	0.249	66.7	inactive
13	TMEM14C	1	0.0839	83.6	0.299	86.3	inactive
14	TMEM14C	2	0.102	83.9	2.06	54.5	inactive
15	TMEM14C	3	0.18	85.5	0.116	92.6	inactive
16	OXR1	1	-0.874	64.5	-1.11	96.4	inactive
17	OXR1	2	0.975	101	0.309	104	inactive
18	OXR1	3	1.77	117	1.04	99.5	inactive
19	TMEM176A	1	0.699	95.8	1.08	80.6	inactive
20	TMEM176A	2	1.2	106	2.06	68.7	inactive
21	TMEM176A	3	0.374	89.3	0.447	88.7	inactive
22	GABARAPL2	1	1.94	120	1.42	92.5	inactive
23	GABARAPL2	2	0.0163	82.2	0.457	81.5	inactive
24	GABARAPL2	3	-1.31	55.9	-1.45	91.6	inactive
25	DGKQ	1	0.844	98.7	1.49	74.6	inactive
26	DGKQ	2	4.43	170	3.82	69.4	active
27	DGKQ	3	-0.802	65.9	-1.3	104	inactive
28	TET3	1	2.04	122	2.46	71.6	inactive
29	TET3	2	1.09	104	0.732	95.5	inactive
30	TET3	3	-0.678	68.4	-0.956	98.3	inactive
31	EXT2	1	-0.677	68.4	-0.977	98.9	inactive
32	EXT2	2	0.312	88.1	-0.535	113	inactive
33	EXT2	3	-0.252	76.9	-0.229	91.2	inactive
34	STAMBP	1	-0.434	73.3	-0.965	106	inactive
35	STAMBP	2	-0.0177	81.5	-0.312	98.9	inactive
36	STAMBP	3	-0.955	62.9	-0.238	74.8	inactive
37	CLIP2	1	0.201	85.9	0.0532	94.6	inactive
38	CLIP2	2	-0.113	79.6	-0.454	100	inactive
39	CLIP2	3	1.36	109	0.629	103	inactive
40	FREM1	1	2.73	136	1.97	90.7	inactive
41	FREM1	2	-0.689	68.2	-0.626	89.8	inactive
42	FREM1	3	-0.832	65.3	-0.0507	74	inactive
43	G6PD	1	-0.296	76	-0.458	95.8	inactive
44	G6PD	2	-1.31	55.7	-0.463	70.4	inactive
45	G6PD	3	-0.117	79.6	0.604	75.8	inactive
46	EIF2A	1	0.321	88.3	0.217	93.2	inactive
47	EIF2A	2	1.42	110	1.54	82.1	inactive
48	EIF2A	3	1.54	113	1.57	83.1	inactive
49	PKHD1L1	1	-0.753	66.9	-0.83	93	inactive
50	PKHD1L1	2	-0.104	79.8	-0.461	101	inactive
51	PKHD1L1	3	-0.992	62.2	-1.34	98.8	inactive
52	ZNF430	1	0.431	90.5	0.234	95.1	inactive
53	ZNF430	2	-0.1	79.9	-0.688	107	inactive
54	ZNF430	3	-1.7	48.1	-0.334	58.7	inactive
55	GPC6	1	0.264	87.1	0.265	90.8	inactive
56	GPC6	2	0.788	97.6	0.724	90.1	inactive
57	GPC6	3	-1.55	51	-1.37	81.8	inactive

9 entries already listed, arranged by “luciferase per cell, z-score”, ascending:
Gene	siRNA no.	total luciferase, z-score	total luciferase, % of control	luciferase per cell, z-score	viable cells, % of control	activity call
FREM1	2	-0.689	68.2	-0.626	89.8	inactive
G6PD	2	-1.31	55.7	-0.463	70.4	inactive
G6PD	1	-0.296	76	-0.458	95.8	inactive
CLIP2	2	-0.113	79.6	-0.454	100	inactive
STAMBP	3	-0.955	62.9	-0.238	74.8	inactive
FREM1	3	-0.832	65.3	-0.0507	74	inactive
CLIP2	1	0.201	85.9	0.0532	94.6	inactive
CLIP2	3	1.36	109	0.629	103	inactive
FREM1	1	2.73	136	1.97	90.7	inactive
